Paper PMC11586402
Where a chain is given by its changes, count along the chain named. No constants are given. Whether binding was seen depends on the method and setting. Binding seen in cells or lysates may run through a third protein. Some results given as binding are weak or reduced against the parent protein; the word gives no strength. For part of these data: Sequences can lack the tags named with a protein.

What was measured:
[1] = biological target: T1, Zfp260 (in the 293 T cell line) (mouse) (UniProt Q62513); test: co-IP; whole cell lysate of the 293 T cell line, antibody overnight, magnetic bead capture, Western blot
T1 sequence: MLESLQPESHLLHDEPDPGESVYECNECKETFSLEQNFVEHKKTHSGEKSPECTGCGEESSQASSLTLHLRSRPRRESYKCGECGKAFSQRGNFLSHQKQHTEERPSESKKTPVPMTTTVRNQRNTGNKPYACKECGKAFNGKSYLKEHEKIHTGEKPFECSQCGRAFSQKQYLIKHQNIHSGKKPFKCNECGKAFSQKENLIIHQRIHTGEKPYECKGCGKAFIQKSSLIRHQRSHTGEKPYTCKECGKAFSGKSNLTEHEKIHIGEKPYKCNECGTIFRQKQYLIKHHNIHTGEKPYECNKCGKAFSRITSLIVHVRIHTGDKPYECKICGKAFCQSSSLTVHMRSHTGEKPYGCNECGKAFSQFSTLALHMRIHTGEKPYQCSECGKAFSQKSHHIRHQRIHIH

[2] = biological target: T2, Zfp260-V5 (wild type) (mouse) (UniProt Q62513); test: co-IP; whole cell lysates of immortalized PSCs (IP lysis buffer), pre-cleared with Protein A/G magnetic beads, antibody overnight, magnetic bead capture, Western blot; Fig. 3m with osteogenic induction; Fig. 6l in Zfp260-/- PSCs overexpressing Zfp260-V5 or its mutants
T2 sequence: T1 sequence

Zfp260-V5 S182G (mouse) = biological target: T3, Zfp260-V5 S182G (mouse) (UniProt Q62513); test: as above
T3 sequence: T1 sequence with S182G

[3] = biological target: T4, Zfp260-V5 S182G-S197G (mouse) (UniProt Q62513); test: as above
T4 sequence: T1 sequence with S182G, S197G

Zfp260-V5 S197G (mouse) = biological target: T5, Zfp260-V5 S197G (mouse) (UniProt Q62513); test: as above
T5 sequence: T1 sequence with S197G

Zfp260-V5 Y173F (mouse) = biological target: T6, Zfp260-V5 Y173F (mouse) (UniProt Q62513); test: as above
T6 sequence: T1 sequence with Y173F

[4] = biological target: T7, Zfp260-V5 Y173F-S182G (mouse) (UniProt Q62513); test: as above
T7 sequence: T1 sequence with Y173F, S182G

[5] = biological target: T8, Zfp260-V5 Y173F-S182G-S197G (mouse) (UniProt Q62513); test: as above
T8 sequence: T1 sequence with Y173F, S182G, S197G

[6] = biological target: T9, Zfp260-V5 Y173F-S197G (mouse) (UniProt Q62513); test: as above
T9 sequence: T1 sequence with Y173F, S197G

Measured: binding

Prkca (in the 293 T cell line) (from UniProt P20444 1-672) (enzyme)
binds: [1]

Prkca (from UniProt P20444 1-672) (enzyme)
binds: [2] | Zfp260-V5 S182G (mouse) | [3] | Zfp260-V5 S197G (mouse) | Zfp260-V5 Y173F (mouse) | [4] | [5] | [6]
